In paper PMC3900384:
No constants are given. Whether binding was seen depends on the method and setting. For some of these results: Binding seen in cells or lysates may run through a third protein. Some binding calls cover weakened binding; strength is not graded here. For some of these results: Tags and fused reporters may be left off the sequences shown.

T1: AtRING1a (Arabidopsis thaliana) (UniProt Q9FKW0)
T1 sequence: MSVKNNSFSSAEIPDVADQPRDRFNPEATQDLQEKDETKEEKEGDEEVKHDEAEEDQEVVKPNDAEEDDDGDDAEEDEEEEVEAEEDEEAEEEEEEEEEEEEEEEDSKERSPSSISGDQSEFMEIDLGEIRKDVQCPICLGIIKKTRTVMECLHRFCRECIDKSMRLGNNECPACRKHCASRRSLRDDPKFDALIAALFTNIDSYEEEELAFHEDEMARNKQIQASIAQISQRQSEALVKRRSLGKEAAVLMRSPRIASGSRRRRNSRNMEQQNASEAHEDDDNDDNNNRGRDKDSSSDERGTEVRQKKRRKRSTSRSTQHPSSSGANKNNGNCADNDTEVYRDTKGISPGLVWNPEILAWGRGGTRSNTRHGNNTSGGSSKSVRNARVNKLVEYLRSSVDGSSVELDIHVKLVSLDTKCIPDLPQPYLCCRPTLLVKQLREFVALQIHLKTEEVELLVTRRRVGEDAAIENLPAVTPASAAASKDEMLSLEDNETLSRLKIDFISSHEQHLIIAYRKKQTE

T2: AtRING1aC (aa 238-522) (Arabidopsis thaliana) (UniProt Q9FKW0)
T2 sequence: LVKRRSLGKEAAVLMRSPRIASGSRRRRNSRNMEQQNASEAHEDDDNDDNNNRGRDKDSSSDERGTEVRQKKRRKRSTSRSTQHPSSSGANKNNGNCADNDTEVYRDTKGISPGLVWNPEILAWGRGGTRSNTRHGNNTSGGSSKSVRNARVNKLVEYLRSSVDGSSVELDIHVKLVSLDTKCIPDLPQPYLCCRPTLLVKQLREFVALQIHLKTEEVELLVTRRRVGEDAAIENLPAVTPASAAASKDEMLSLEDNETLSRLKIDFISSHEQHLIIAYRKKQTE

T3: GST-AL6 (Arabidopsis thaliana) (UniProt Q8S8M9)
T3 sequence: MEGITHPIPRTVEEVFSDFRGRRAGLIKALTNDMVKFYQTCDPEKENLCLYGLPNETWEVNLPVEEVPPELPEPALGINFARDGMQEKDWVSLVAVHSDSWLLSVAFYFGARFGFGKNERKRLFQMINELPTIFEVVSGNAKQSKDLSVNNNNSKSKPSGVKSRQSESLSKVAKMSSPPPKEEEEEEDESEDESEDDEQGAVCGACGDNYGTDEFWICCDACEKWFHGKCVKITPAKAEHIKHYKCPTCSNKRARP

T4: GST-AL7 (Arabidopsis thaliana) (UniProt Q8LA16)
T4 sequence: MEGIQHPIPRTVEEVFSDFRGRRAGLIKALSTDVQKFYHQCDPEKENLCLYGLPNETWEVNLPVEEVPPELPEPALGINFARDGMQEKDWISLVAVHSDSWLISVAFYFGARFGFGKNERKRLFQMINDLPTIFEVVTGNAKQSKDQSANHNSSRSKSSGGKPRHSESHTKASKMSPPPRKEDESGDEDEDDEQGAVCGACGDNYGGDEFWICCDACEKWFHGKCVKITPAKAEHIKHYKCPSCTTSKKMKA

T5: GST-AL2 (Arabidopsis thaliana) (UniProt Q9SRM4)
T5 sequence: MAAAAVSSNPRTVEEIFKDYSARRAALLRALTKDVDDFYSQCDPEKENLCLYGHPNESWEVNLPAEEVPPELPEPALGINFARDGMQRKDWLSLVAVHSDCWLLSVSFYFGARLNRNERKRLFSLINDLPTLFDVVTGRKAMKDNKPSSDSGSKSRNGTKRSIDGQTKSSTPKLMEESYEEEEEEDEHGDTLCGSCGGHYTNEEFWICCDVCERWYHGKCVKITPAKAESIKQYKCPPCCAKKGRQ

T6: GFP-AL6 (Arabidopsis thaliana) (UniProt Q8S8M9)
T6 sequence: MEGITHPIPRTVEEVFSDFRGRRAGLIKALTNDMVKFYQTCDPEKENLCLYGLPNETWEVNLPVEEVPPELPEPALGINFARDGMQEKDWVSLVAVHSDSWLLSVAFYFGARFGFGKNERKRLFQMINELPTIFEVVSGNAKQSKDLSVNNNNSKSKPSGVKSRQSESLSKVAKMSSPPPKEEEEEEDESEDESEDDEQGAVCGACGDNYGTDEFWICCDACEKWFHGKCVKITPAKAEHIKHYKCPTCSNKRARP

T7: AtRING1a-GFP (Arabidopsis thaliana) (UniProt Q9FKW0)
T7 sequence: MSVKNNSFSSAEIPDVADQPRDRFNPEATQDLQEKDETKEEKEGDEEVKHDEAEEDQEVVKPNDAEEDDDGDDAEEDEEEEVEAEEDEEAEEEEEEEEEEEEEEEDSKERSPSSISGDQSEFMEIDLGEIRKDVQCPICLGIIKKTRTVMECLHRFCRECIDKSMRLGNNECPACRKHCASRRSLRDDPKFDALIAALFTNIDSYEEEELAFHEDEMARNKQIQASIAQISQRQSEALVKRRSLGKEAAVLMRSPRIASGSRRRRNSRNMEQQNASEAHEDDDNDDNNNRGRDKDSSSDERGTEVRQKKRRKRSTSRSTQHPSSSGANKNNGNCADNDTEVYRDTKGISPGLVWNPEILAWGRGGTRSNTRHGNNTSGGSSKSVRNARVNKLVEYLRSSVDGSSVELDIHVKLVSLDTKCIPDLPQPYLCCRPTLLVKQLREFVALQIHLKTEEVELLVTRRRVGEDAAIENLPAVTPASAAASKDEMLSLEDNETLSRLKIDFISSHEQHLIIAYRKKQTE


Experiments:
[1] = target: T1, AtRING1a (Arabidopsis thaliana); assay: two-hybrid; library screen: AtRING1a as bait (pGBKT7) against an Arabidopsis seedling cDNA library
[2] = target: T2, AtRING1aC (aa 238-522) (Arabidopsis thaliana); assay: two-hybrid; pairwise tests of pGBKT7 and pGADT7 constructs in S. cerevisiae PJ69-4a; growth on SD lacking Leu, Trp and Ade (SD-LTA)
[3] = target: T1, AtRING1a (Arabidopsis thaliana); assay: as above
[4] = target: T3, GST-AL6 (Arabidopsis thaliana); assay: pull-down; agarose beads coated with GST or GST fusion protein, incubated with total protein extracts of two-week-old transgenic Arabidopsis seedlings; Western blot with anti-FLAG or anti-GFP; only the target purified
[5] = target: T4, GST-AL7 (Arabidopsis thaliana); assay: as above
[6] = target: T5, GST-AL2 (Arabidopsis thaliana); assay: as above
[7] = target: T6, GFP-AL6 (Arabidopsis thaliana); assay: co-IP; extracts of two-week-old Arabidopsis seedlings expressing GFP-AL6 and FLAG-AtRING1a; IP overnight at 4°C with polyclonal anti-GFP and protein A beads; lysis buffer 50 mM Tris-HCl pH 7, 150 mM NaCl, 0.5% Triton X-100, with DNaseI; blot with anti-FLAG
[8] = target: T7, AtRING1a-GFP (Arabidopsis thaliana); assay: FRET or BRET; FLIM: GFP and RFP fusions transiently co-expressed in Nicotiana benthamiana leaves; decrease of GFP fluorescence lifetime in nuclei, more than 5% counted as interaction

| Binder | binding [3] | binding [8] | also measured |
| --- | --- | --- | --- |
| AL6N (aa 1-162) (domain or fragment, UniProt Q8S8M9 1-162) MEGITHPIPRTVEEVFSDFRGRRAGLIKALTNDMVKFYQTCDPEKENLCLYGLPNETWEVNLPVEEVPPELPEPALGINFARDGMQEKDWVSLVAVHSDSWLLSVAFYFGARFGFGKNERKRLFQMINELPTIFEVVSGNAKQSKDLSVNNNNSKSKPSGVK |  |  | binding [1]: binds; binding [2]: binds |
| AtRING1aN (aa 1-218) (domain or fragment, UniProt Q9FKW0 1-218) MSVKNNSFSSAEIPDVADQPRDRFNPEATQDLQEKDETKEEKEGDEEVKHDEAEEDQEVVKPNDAEEDDDGDDAEEDEEEEVEAEEDEEAEEEEEEEEEEEEEEEDSKERSPSSISGDQSEFMEIDLGEIRKDVQCPICLGIIKKTRTVMECLHRFCRECIDKSMRLGNNECPACRKHCASRRSLRDDPKFDALIAALFTNIDSYEEEELAFHEDEMA | binds |  |  |
| FLAG-AtRING1a (protein, UniProt Q9FKW0 1-522) MSVKNNSFSSAEIPDVADQPRDRFNPEATQDLQEKDETKEEKEGDEEVKHDEAEEDQEVVKPNDAEEDDDGDDAEEDEEEEVEAEEDEEAEEEEEEEEEEEEEEEDSKERSPSSISGDQSEFMEIDLGEIRKDVQCPICLGIIKKTRTVMECLHRFCRECIDKSMRLGNNECPACRKHCASRRSLRDDPKFDALIAALFTNIDSYEEEELAFHEDEMARNKQIQASIAQISQRQSEALVKRRSLGKEAAVLMRSPRIASGSRRRRNSRNMEQQNASEAHEDDDNDDNNNRGRDKDSSSDERGTEVRQKKRRKRSTSRSTQHPSSSGANKNNGNCADNDTEVYRDTKGISPGLVWNPEILAWGRGGTRSNTRHGNNTSGGSSKSVRNARVNKLVEYLRSSVDGSSVELDIHVKLVSLDTKCIPDLPQPYLCCRPTLLVKQLREFVALQIHLKTEEVELLVTRRRVGEDAAIENLPAVTPASAAASKDEMLSLEDNETLSRLKIDFISSHEQHLIIAYRKKQTE |  |  | binding [4]: binds; binding [5]: binds; binding [6]: binds; binding [7]: binds |
| AL1 (protein, UniProt Q9FFF5 1-241) MAAESSNPRTVEEIFKDFSGRRSGFLRALSVDVDKFYSLCDPEMENLCLYGHPNGTWEVNLPAEEVPPELPEPALGINFARDGMQRKDWLSLVAVHSDCWLLSVSSYFGARLNRNERKRLFSLINDLPTLFEVVTGRKPIKDGKPSMDLGSKSRNGVKRSIEGQTKSTPKLMEESYEDEDDEHGDTLCGSCGGNYTNDEFWICCDVCERWYHGKCVKITPAKAESIKQYKCPSCCTKKGRQ | binds |  |  |
| RFP-AL1 (protein, UniProt Q9FFF5 1-241) MAAESSNPRTVEEIFKDFSGRRSGFLRALSVDVDKFYSLCDPEMENLCLYGHPNGTWEVNLPAEEVPPELPEPALGINFARDGMQRKDWLSLVAVHSDCWLLSVSSYFGARLNRNERKRLFSLINDLPTLFEVVTGRKPIKDGKPSMDLGSKSRNGVKRSIEGQTKSTPKLMEESYEDEDDEHGDTLCGSCGGNYTNDEFWICCDVCERWYHGKCVKITPAKAESIKQYKCPSCCTKKGRQ |  | binds |  |
| RFP-AL2 (protein, UniProt Q9SRM4 1-246) MAAAAVSSNPRTVEEIFKDYSARRAALLRALTKDVDDFYSQCDPEKENLCLYGHPNESWEVNLPAEEVPPELPEPALGINFARDGMQRKDWLSLVAVHSDCWLLSVSFYFGARLNRNERKRLFSLINDLPTLFDVVTGRKAMKDNKPSSDSGSKSRNGTKRSIDGQTKSSTPKLMEESYEEEEEEDEHGDTLCGSCGGHYTNEEFWICCDVCERWYHGKCVKITPAKAESIKQYKCPPCCAKKGRQ |  | binds |  |
| RFP-AL6 (protein, UniProt Q8S8M9 1-256) MEGITHPIPRTVEEVFSDFRGRRAGLIKALTNDMVKFYQTCDPEKENLCLYGLPNETWEVNLPVEEVPPELPEPALGINFARDGMQEKDWVSLVAVHSDSWLLSVAFYFGARFGFGKNERKRLFQMINELPTIFEVVSGNAKQSKDLSVNNNNSKSKPSGVKSRQSESLSKVAKMSSPPPKEEEEEEDESEDESEDDEQGAVCGACGDNYGTDEFWICCDACEKWFHGKCVKITPAKAEHIKHYKCPTCSNKRARP |  | binds |  |
| RFP-AL7 (protein, UniProt Q8LA16 1-252) MEGIQHPIPRTVEEVFSDFRGRRAGLIKALSTDVQKFYHQCDPEKENLCLYGLPNETWEVNLPVEEVPPELPEPALGINFARDGMQEKDWISLVAVHSDSWLISVAFYFGARFGFGKNERKRLFQMINDLPTIFEVVTGNAKQSKDQSANHNSSRSKSSGGKPRHSESHTKASKMSPPPRKEDESGDEDEDDEQGAVCGACGDNYGGDEFWICCDACEKWFHGKCVKITPAKAEHIKHYKCPSCTTSKKMKA |  | binds |  |
| AL2 (protein, UniProt Q9SRM4 1-246) MAAAAVSSNPRTVEEIFKDYSARRAALLRALTKDVDDFYSQCDPEKENLCLYGHPNESWEVNLPAEEVPPELPEPALGINFARDGMQRKDWLSLVAVHSDCWLLSVSFYFGARLNRNERKRLFSLINDLPTLFDVVTGRKAMKDNKPSSDSGSKSRNGTKRSIDGQTKSSTPKLMEESYEEEEEEDEHGDTLCGSCGGHYTNEEFWICCDVCERWYHGKCVKITPAKAESIKQYKCPPCCAKKGRQ | binds |  |  |
| AL5 (protein, UniProt Q5XEM9 1-260) MEGGTAHYSPRTVEEVFRDFKGRRAGIIQALTTDVEDFFQQCDPEKQNLCLYGFPNEVWEVNLPAEEVPPELPEPALGINFARDGMQERNWLSLVAVHSDAWLLSVSFYFGSRFGFDRADRKRLFSMINEVPTVYEVVTGNAEKQTKEMPSSANQNGNRSKSNSKMRGLESKSSKTIHAKDEEEGLELEEGEEEEDEDEDEHGETLCGACGDNYASDEFWICCDMCEKWFHGECVKITPARAEHIKHYKCPTCSNKRARP | binds |  |  |
| AL6 (protein, UniProt Q8S8M9 1-256) MEGITHPIPRTVEEVFSDFRGRRAGLIKALTNDMVKFYQTCDPEKENLCLYGLPNETWEVNLPVEEVPPELPEPALGINFARDGMQEKDWVSLVAVHSDSWLLSVAFYFGARFGFGKNERKRLFQMINELPTIFEVVSGNAKQSKDLSVNNNNSKSKPSGVKSRQSESLSKVAKMSSPPPKEEEEEEDESEDESEDDEQGAVCGACGDNYGTDEFWICCDACEKWFHGKCVKITPAKAEHIKHYKCPTCSNKRARP | binds |  |  |
| AL7 (protein, UniProt Q8LA16 1-252) MEGIQHPIPRTVEEVFSDFRGRRAGLIKALSTDVQKFYHQCDPEKENLCLYGLPNETWEVNLPVEEVPPELPEPALGINFARDGMQEKDWISLVAVHSDSWLISVAFYFGARFGFGKNERKRLFQMINDLPTIFEVVTGNAKQSKDQSANHNSSRSKSSGGKPRHSESHTKASKMSPPPRKEDESGDEDEDDEQGAVCGACGDNYGGDEFWICCDACEKWFHGKCVKITPAKAEHIKHYKCPSCTTSKKMKA | binds |  |  |
